Results reported in publication PMC11046792.
These are yes or no findings as the source states them, for the method shown. In cells and extracts the contact can be indirect. Some binding calls cover weakened binding; strength is not graded here. For part of these data: Sequences can lack the tags named with a protein.

Legend:
[1] = biological target: T1, caveolin-1 (mouse (endogenous in mouse aortae and primary mouse aortic ECs)) (UniProt P49817); experiment: co-IP; lysates of primary mouse aortic endothelial cells (NG or HG; NCEH1 shRNA or overexpression, ZNRF1 overexpression or knock-down); lysis buffer with 20 mM Tris pH 7.5, 150 mM NaCl, 1% Triton X-100; immunoprecipitation 2 h at 4 °C, Protein G PLUS-Agarose, immunoblot
T1 sequence: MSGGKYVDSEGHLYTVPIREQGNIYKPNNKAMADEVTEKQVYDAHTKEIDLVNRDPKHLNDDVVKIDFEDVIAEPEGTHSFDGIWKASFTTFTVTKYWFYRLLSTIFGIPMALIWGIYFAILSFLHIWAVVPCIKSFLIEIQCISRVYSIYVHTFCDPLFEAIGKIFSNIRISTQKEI

[2] = biological target: T1, caveolin-1 (mouse (endogenous in mouse aortae and primary mouse aortic ECs)); experiment: co-IP; lysates of mouse aortae (NG or HG ex vivo, normal diet or HFD; endothelial NCEH1 shRNA or overexpression by AAV); lysis buffer with 20 mM Tris pH 7.5, 150 mM NaCl, 1% Triton X-100; immunoprecipitation 2 h at 4 °C, Protein G PLUS-Agarose, immunoblot
[3] = biological target: T2, Zinc and ring finger 1 (E3 ubiquitin-protein ligase ZNRF1) (mouse (endogenous in primary mouse aortic ECs and mouse aortae)) (UniProt Q91V17); experiment: co-IP; lysates of primary mouse aortic endothelial cells (NG or HG; NCEH1 shRNA or overexpression, ZNRF1 overexpression or knock-down); lysis buffer with 20 mM Tris pH 7.5, 150 mM NaCl, 1% Triton X-100; immunoprecipitation 2 h at 4 °C, Protein G PLUS-Agarose, immunoblot
T2 sequence: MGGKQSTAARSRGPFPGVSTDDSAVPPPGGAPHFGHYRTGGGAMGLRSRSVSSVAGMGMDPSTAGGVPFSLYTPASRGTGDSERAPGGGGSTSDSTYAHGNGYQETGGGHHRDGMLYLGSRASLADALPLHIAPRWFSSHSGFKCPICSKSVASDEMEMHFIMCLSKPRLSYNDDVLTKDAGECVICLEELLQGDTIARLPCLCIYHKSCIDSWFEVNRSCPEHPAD

[4] = biological target: T2, Zinc and ring finger 1 (E3 ubiquitin-protein ligase ZNRF1) (mouse (endogenous in primary mouse aortic ECs and mouse aortae)); experiment: co-IP; lysates of mouse aortae (NG or HG ex vivo, normal diet or HFD; endothelial NCEH1 shRNA or overexpression by AAV); lysis buffer with 20 mM Tris pH 7.5, 150 mM NaCl, 1% Triton X-100; immunoprecipitation 2 h at 4 °C, Protein G PLUS-Agarose, immunoblot
[5] = biological target: T3, HA-ZNRF1 (full-length ZNRF1 in pcDNA3.1-HA; printed as pcDNA3.1-HA-NKAα1) (UniProt Q91V17); experiment: co-IP; HEK293 cells transfected with tagged NCEH1 and ZNRF1 plasmids (1 µg, 6 h, then 48 h); interactions examined by immunoblotting
T3 sequence: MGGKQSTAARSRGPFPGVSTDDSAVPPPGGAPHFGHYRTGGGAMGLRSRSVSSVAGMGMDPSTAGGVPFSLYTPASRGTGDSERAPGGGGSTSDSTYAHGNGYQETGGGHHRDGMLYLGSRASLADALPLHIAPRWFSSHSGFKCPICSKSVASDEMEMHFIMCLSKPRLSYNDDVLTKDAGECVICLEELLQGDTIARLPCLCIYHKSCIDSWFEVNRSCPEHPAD

B1: endothelial nitric oxide synthase (enzyme, UniProt P70313 1-1202)
chain: MGNLKSVGQEPGPPCGLGLGLGLGLCGKQGPASPAPEPSQAPAPPSPTRPAPDHSPPLTRPPDGPRFPRVKNWEVGSITYDTLSAQAQQDGPCTSRRCLGSLVFPRKLQSRPTQGPSPTEQLLGQARDFINQYYNSIKRSGSQAHEQRLQEVEAEVAATGTYQLRESELVFGAKQAWRNAPRCVGRIQWGKLQVFDARDCRTAQEMFTYICNHIKYATNRGNLRSAITVFPQRCPGRGDFRIWNSQLIRYAGYRQQDGSVRGDPANVEITELCIQHGWTPGNGRFDVLPLLLQAPDEPPELFTLPPEMVLEVPLEHPTLEWFAALGLRWYALPAVSNMLLEIGGLEFPAAPFSGWYMSSEIGMRDLCDPHRYNILEDVAVCMDLDTRTTSSLWKDKAAVEINVAVLHSYQLAKVTIVDHHAATASFMKHLENEQKARGGCPADWAWIVPPISGSLTPVFHQEMVNYFLSPAFRYQPDPWKGSAAKGAGITRKKTFKEVANAVKISASLMGTVMAKRVKATILYGSETGRAQSYAQQLGRLFRKAFDPRVLCMDEYDVVSLEHEALVLVVTSTFGNGDPPENGESFAAALMEMSGPYNSSPRPEQHKSYKIRFNSVSCSDPLVSSWRRKRKESSNTDSAGALGTLRFCVFGLGSRAYPHFCAFARAVDTRLEELGGERLLQLGQGDELCGQEEAFRGWAQAAFQAACETFCVGEDAKAAARDIFSPKRSWKRQRYRLSTQAESLQLLPGLTHVHRRKMFQATILSVENLQSSKSTRATILVRLDTGGQEGLQYQPGDHIGVCPPNRPGLVEALLSRVEDPPPSTEPVAVEQLEKGSPGGPPPGWVRDPRLPPCTLRQALTYFLDITSPPSPRLLRLLSTLAEESSEQQELEALSQDPRRYEEWKWFSCPTLLEVLEQFPSVALPAPLILTQLPLLQPRYYSVSSAPSAHPGEIHLTIAVLAYRTQDGLGPLHYGVCSTWMSQLKAGDPVPCFIRGAPSFRLPPDPNLPCILVGPGTGIAPFRGFWQDRLHDIEIKGLQPAPMTLVFGCRCSQLDHLYRDEVLDAQQRGVFGQVLTAFSRDPGSPKTYVQDLLRTELAAEVHRVLCLEQGHMFVCGDVTMATSVLQTVQRILATEGGMELDEAGDVIGVLRDQQRYHEDIFGLTLRTQEVTSRIRTQSFSLQERQLRGAVPWSFDPPGPEIPGS
B1 was tested, and the binding [1] was “binds” and the binding [2] was “binds”.

B2: neutral cholesterol ester hydrolase 1 (enzyme, UniProt Q8BLF1 1-408)
chain: MRSSCVLLAALLALAAYYVYIPLPSAVSDPWKLMLLDATFRGAQQVSNLIHSLGLNHHLIALNFIITSFGKQSARSSPKVKVTDTDFDGVEVRVFEGSPKPEEPLRRSVIYIHGGGWALASAKISYYDQLCTTMAEELNAVIVSIEYRLVPQVYFPEQIHDVIRATKYFLQPEVLDKYKVDPGRVGISGDSAGGNLAAALGQQFTYVASLKNKLKLQALVYPVLQALDFNTPSYQQSMNTPILPRHVMVRYWLDYFKGNYDFVEAMIVNNHTSLDVERAAALRARLDWTSLLPSSIKKNYKPIMQTTGNARIVQEIPQLLDAAASPLIAEQEVLEALPKTYILTCEHDVLRDDGIMYAKRLESAGVNVTLDHFEDGFHGCMIFTSWPTNFSVGIRTRNSYIKWLDQNL
For B2, the binding [3] was “binds”.

B3: caveolin-1 (protein, UniProt P49817 1-178)
chain: MSGGKYVDSEGHLYTVPIREQGNIYKPNNKAMADEVTEKQVYDAHTKEIDLVNRDPKHLNDDVVKIDFEDVIAEPEGTHSFDGIWKASFTTFTVTKYWFYRLLSTIFGIPMALIWGIYFAILSFLHIWAVVPCIKSFLIEIQCISRVYSIYVHTFCDPLFEAIGKIFSNIRISTQKEI
In the case of B3, the binding [3] is reported as “binds” and the binding [4] is reported as “binds”.

B4: Flag-NCEH1 (pcDNA3.1-Flag-NCEH1) (enzyme, UniProt Q8BLF1 1-408)
chain: MRSSCVLLAALLALAAYYVYIPLPSAVSDPWKLMLLDATFRGAQQVSNLIHSLGLNHHLIALNFIITSFGKQSARSSPKVKVTDTDFDGVEVRVFEGSPKPEEPLRRSVIYIHGGGWALASAKISYYDQLCTTMAEELNAVIVSIEYRLVPQVYFPEQIHDVIRATKYFLQPEVLDKYKVDPGRVGISGDSAGGNLAAALGQQFTYVASLKNKLKLQALVYPVLQALDFNTPSYQQSMNTPILPRHVMVRYWLDYFKGNYDFVEAMIVNNHTSLDVERAAALRARLDWTSLLPSSIKKNYKPIMQTTGNARIVQEIPQLLDAAASPLIAEQEVLEALPKTYILTCEHDVLRDDGIMYAKRLESAGVNVTLDHFEDGFHGCMIFTSWPTNFSVGIRTRNSYIKWLDQNL
For B4, the binding [5] was “binds”.
